From patent publication US20250228880A1, “REDOX-ACTIVE COMPOUNDS AND RELATED COMPOUNDS, COMPOSITIONS, METHODS AND SYSTEMS” (CALIFORNIA INSTITUTE OF TECHNOLOGY, priority 2008, published 2025) come the findings set out here.

The amount applied is not stated for every result.

This data set concerns P. aeruginosa PA14 Δphz mutant. The experiment in a line: Redox cycling between Δphz cells and working electrode (anodic current, charge transferred, Faraday's law). In kind it is cell-based, Pseudomonas aeruginosa. The settings on record: in the presence of phenazine, within 2 hours; background 5-10 μA.
Regarding `Oc1cccc2nc3ccccc3nc12` [1-OHPHZ, 1-hydroxyphenazine], the anodic current is 45±10 μA. With `O=C(O)c1cccc2nc3ccccc3nc12` [PCA, phenazine-1-carboxylic acid] the figure was 80±10 μA; with `C[n+]1c2ccccc2nc2c([O-])cccc21` [PYO, Pyocyanin], 80±10 μA.
